Measured values: PMC11524475
Results are given in words; binding and its absence hold for the method and conditions named. In cells and extracts the contact can be indirect. Where a sequence is shown, tags or fusion partners need not be part of it.

Target: NbZAR1 (ZAR1 from Nicotiana benthamiana), C-terminally 3xFLAG- or 4xMyc-tagged (Nicotiana benthamiana)
Experiment: co-IP; C-terminally 3xFLAG-tagged bait co-expressed with C-terminally 4xMyc-tagged prey in N. benthamiana leaves; FLAG IP with anti-FLAG agarose beads, 90 min at 4°C, GTEN buffer (10% glycerol, 50 mM Tris-HCl pH 7.5, 5 mM MgCl2, 50 mM NaCl) with 10 mM DTT and 0.2% IGEPAL; eluted with 3xFLAG peptide; anti-Myc and anti-FLAG immunoblot

binding: no binding
B1: NbZAR1 (ZAR1 from Nicotiana benthamiana), C-terminally 3xFLAG- or 4xMyc-tagged (protein, UniProt A0A385HBS4 1-845)
chain: MVDAVVTVFLEKLLHVLTEESRFLTKYRQQFEKLKNELLFMQSFLKDAERLKRKNNTLKGVMSCLRDLIFEAEEILEDCQNQSADSDRATTCFHPKRLSLRHQTGKCLAKINDRISEIKQNISTYLGVPLLEEGSMEAHNNLMSRWTSSLYDHTQVVGLEGDTEKIKDWLFEARDGLLTIAFVGMGGLGKTTLAQKVFNDKRVEDHLERRIWVSVSQTFTEEQVMRSILRSLGDACVGDDQCELLRKINQYLLGKRFLIVMDDVWSWDNAWWQKIYTGLPKGNGSTVIVTTRNELVARKMGVTEARIHWPKFLNEHYSWLLFRKIAFAGSAGECHFPELEDVGKEIVEKCKGLPLAIKAVGGVMLCKPSYYHEWRRISNHFRDELKENDDSVMASLQLSYDELPPYLKSCFLCFSLFPEDCVIPKDQLIRWWIGEGFIPLRSGRLSTEVGEDCFSQLSNRCLIEVVDKAYNGVIHTCKMHDMVRDLVIKLAEDDAFFTPADATCRHLGIKSEMNWKQLLSNQKLRALLTTTKSGEVNKIHSDIAKKLCKSRHLQVLDLSKSIFDVPLSSLLEGIGSAKQLTYLSLSNTHPMIGVPASISKLEKLQILDFSYCQNMKMLPSCVLTFEELAVLDVNNCGSLEYLPKGLSRLSNLQVLLGFKPAKLSQPGGCRIAELRSLTRLRTLSLRLTENEEIGDDEGNALVDLQELQFLTISCFGSQDNGLATKLGRLYPPRQLHELILKFYPSKTSPEWLNPNLSPMLRYLSIISGDITQMHENFWGDGSTAWKIEGLMLESLSDLRLEWSAMHQVMPSLRILKVSWCPELESFPIEDAGFRGGLWKKEEHRN
